Primary screen of a compound library

By UniProt entry, the sequences of proteins in these tests, tags left out.
UniProt E9BF75, entry or part of it: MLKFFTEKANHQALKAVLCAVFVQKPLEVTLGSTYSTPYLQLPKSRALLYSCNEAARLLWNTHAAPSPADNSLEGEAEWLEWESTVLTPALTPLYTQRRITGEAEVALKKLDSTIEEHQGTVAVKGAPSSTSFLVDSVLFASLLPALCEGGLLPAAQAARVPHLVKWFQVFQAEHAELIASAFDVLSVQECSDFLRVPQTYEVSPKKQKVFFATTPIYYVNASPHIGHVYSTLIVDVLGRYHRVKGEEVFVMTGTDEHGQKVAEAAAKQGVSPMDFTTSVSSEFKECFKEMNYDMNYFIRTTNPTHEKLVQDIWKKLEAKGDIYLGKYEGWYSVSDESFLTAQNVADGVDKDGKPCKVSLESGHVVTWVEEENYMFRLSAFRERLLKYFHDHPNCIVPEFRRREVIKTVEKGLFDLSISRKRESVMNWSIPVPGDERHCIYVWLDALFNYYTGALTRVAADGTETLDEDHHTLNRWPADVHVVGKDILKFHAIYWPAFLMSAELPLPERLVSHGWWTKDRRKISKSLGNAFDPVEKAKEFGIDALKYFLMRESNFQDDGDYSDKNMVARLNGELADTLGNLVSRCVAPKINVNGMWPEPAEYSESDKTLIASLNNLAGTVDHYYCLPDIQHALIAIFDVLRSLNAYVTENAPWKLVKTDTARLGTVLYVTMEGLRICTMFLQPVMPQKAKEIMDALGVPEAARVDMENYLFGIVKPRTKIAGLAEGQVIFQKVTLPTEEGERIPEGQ

LdMetRS: 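Primary screen of methionyl-tRNA synthetase; the read-out is not stated. Target: Methionyl-tRNA synthetase (putative), Leishmania donovani (UniProt E9BF75). The test concentration is not given. Values are per cent inhibition. Size under these conditions: about 68,000 compounds, about 24 of them at 50% or above in at least one test.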
Mtb heat-shock: 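Assay on Mycobacterium tuberculosis, filed only as a heat shock assay from Cornell; the read-out is not stated. The concentration is filed as 10 mM, unlikely as a test dose, so the dose is not known. Higher reads as stronger inhibition (inferred: compounds with an IC50 in retests scored well above the rest). Size under these conditions: about 69,000 compounds, about 930 of them at 50% or above in at least one test.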

All values are in %.
How 0% and 100% were set is not recorded. Most values in the screen are low, and negative values occur.
The compounds are a random part of those screened.
A dash means the value is not listed here; it may have been measured.

compound	LdMetRS	Mtb heat-shock
Cc1ccc(CNC(=O)Nc2nncs2)n1C	8.791	-11.21
Cc1csc(N2CCN(CC(=O)Nc3ccncc3)CC2C)n1 (centres undefined)	19.37	-4.062
CC(C)(C)C(=O)NCCc1ccn(-c2ccccc2)n1	10.42	-17.25
CN(Cc1cccc(-n2cccn2)c1)Cc1c[nH]cn1	15.24	-1.132
CCC(C)(C)C1CCCN1C(=O)c1coc(S(=O)(=O)NC)c1 (centres undefined)	-0.2786	-0.7368
O=C(O)C(F)(F)F.[H][C@@]12CCN(C3CCCC3)C[C@@]1([H])[C@H](C(=O)NC1CCC1)CCO2	-	-17.95
CN(C)CC1(O)CCN(C(=O)c2cnc(CN3CCCC3)s2)C1 (centres undefined)	17.37	-9.507
COc1cc(N2C[C@@H]3COC[C@]3(C(=O)NC3CC(F)(F)C3)C2)ncn1	9.343	-
Cc1nn(C)c2ncc(CN3CCN(Cc4ccco4)CC3)cc12	9.859	-9.442
Cc1ccc(C)c(CN(CC(N)=O)C(C)C)c1	10.34	9.517
O=C(O)C(F)(F)F.O=C(O)C(F)(F)F.[H][C@@]12CCC(=O)N(Cc3ccncc3)[C@]1([H])CCN2Cc1ccc(C)s1	-	-1.862
CCc1cc(NCCS(=O)(=O)N(C)C)nc(N2CCOCC2)n1	14.44	18.4
[H][C@@]12C[C@@H](OCc3cccnc3)CN1CCN(C(=O)c1cnc(C)cn1)C2	-	-0.01642
COCc1ccc(CNc2cncc(-n3cccn3)n2)cc1	20.45	8.708
CC(C)(C)OC(=O)N1CCC(C(=O)NCc2cc3ccccc3[nH]2)C1 (centres undefined)	-9.945	18.87
O=C(N[C@@H]1CCNC[C@H]1O)c1ccc(-c2ccc(F)cc2)cc1	1.044	-8.109
CCCc1cc(N2CCCC2Cn2nc(C)cc2C)n2ncnc2n1 (centres undefined)	17.25	17.18
Cc1ccc(C(=O)NCc2cccnc2N(C)C)o1	18.95	-6.505
CC(C)n1nc(CN(C)C)c2c1CN(CC1CC1)CC2.O=C(O)C(F)(F)F.O=C(O)C(F)(F)F	-	-18.3
O=C(O)C(F)(F)F.O=C(O)C(F)(F)F.c1cc(CN2CCCn3cnc(COCC4CC4)c3C2)ccn1	-	-23.26
CNc1nc(CNC(=O)Nc2cccc(CSC)c2)cs1	10.48	21.41
CC(C)(CNc1c(C#N)cnc2ccc(Cl)cc12)C(N)=O	12.57	0.591
CCc1noc(C(C)N(C)CC(=O)Nc2cccc(C)c2C)n1 (centres undefined)	11.38	-10.31
COc1cccc(OC2CN(C(=O)c3ccoc3C)C2)c1	-4.556	-14.34
O=C(CCCn1cncn1)N1CCCC1c1noc(C2CC2)n1 (centres undefined)	10.8	5.774
CC(C)CCN1CC2(CCN(C(=O)C3(C)CCCCO3)CC2)OC1=O (centres undefined)	-12.5	-11.8
Cc1nnc(C2Cc3ccccc3CN2Cc2c(C)noc2C)o1 (centres undefined)	25.97	0.8791
Cc1nc(C(=O)N2C[C@@H]3COC[C@]3(COCc3cccnc3)C2)cs1	5.674	-
CS(=O)(=O)N1Cc2ccccc2CC2(CCN(Cc3ccccn3)C2)C1 (centres undefined)	12.57	3.095
Cc1nc2c(c(C)c1CC(=O)NCc1ccc(F)cc1)c(=O)[nH]n2C	9.392	-6.744
N#Cc1cccc(NC2CC(=O)N(CCCc3ccccc3)C2)n1 (centres undefined)	11.39	-2.6
Cc1ccc(-c2ncc(CN3CCN(S(N)(=O)=O)CC3)s2)o1	10.99	-32.14
Cc1cccc(-n2c(C)cc(=O)[nH]c2=O)c1C	8.527	10.65
CNc1nccc(C2CCCCN2Cc2cnn3cccnc23)n1 (centres undefined)	18.73	-5.717
Clc1cccc(-n2cnnn2)c1N1CCCCC1	-6.266	-15.11
Cc1nc(N2CCN(C)CC2)ncc1C(=O)N1C[C@@H](C)[C@@](C)(O)C1	3.876	-14.03
COc1ccc(C(=O)C2CCCN(c3cc(N)ncn3)C2)c(C)c1 (centres undefined)	17.65	-13.13
N#Cc1ccc(Cl)cc1N1CCC(OC2CCOCC2)CC1	9.278	7.077
CCN(CC)C(=O)CSc1ncc[nH]1	-0.8596	7.591
CN(C(=O)c1cn(C)cn1)[C@@H]1CCC[C@@H](Oc2ccccc2)[C@@H]1O	9.003	-6.219
COc1ccc(Cl)cc1C(=O)N1CCOC2(CNCCOC2)C1 (centres undefined)	12.68	-2.304
OC1(CN2CCCC2)COCCN(c2ncnc3[nH]cnc23)C1 (centres undefined)	15.78	-3.168
Cc1ccc(OCC(=O)NCC(F)(F)F)nc1	8.511	0.06784
CN(C)C(=O)CO[C@H]1COCCN(C2CCOCC2)C1	14.29	-9.178
CC(=O)Nc1ncc(S(=O)(=O)Nc2cccc(F)c2)s1	17.84	-2.558
O=C(NCc1ccccc1CN1CCCC1)Nc1cccnc1	17.06	3.213
COc1cccc(-c2ccnc3nc(N4CCCCC4)[nH]c(=O)c23)c1	3.429	-9.733
CN1CC(c2ccccc2)CC2(CCN(C(=O)c3cccnn3)CC2)C1 (centres undefined)	4.396	21.74

The last 5 entries again:

| compound | LdMetRS | Mtb heat-shock |
|---|---|---|
| `CN(C)C(=O)CO[C@H]1COCCN(C2CCOCC2)C1` | 14.29 | -9.178 |
| `CC(=O)Nc1ncc(S(=O)(=O)Nc2cccc(F)c2)s1` | 17.84 | -2.558 |
| `O=C(NCc1ccccc1CN1CCCC1)Nc1cccnc1` | 17.06 | 3.213 |
| `COc1cccc(-c2ccnc3nc(N4CCCCC4)[nH]c(=O)c23)c1` | 3.429 | -9.733 |
| `CN1CC(c2ccccc2)CC2(CCN(C(=O)c3cccnn3)CC2)C1` (centres undefined) | 4.396 | 21.74 |

Measurements from “University of Dundee, Small-Polar-MMV Screening Library” (2021), ChEMBL document CHEMBL3988442.